# The supplement of paper PMC3334620
# Whole data set: some 33,000 sequences, median “E-score (-0.5 to 0.5)” near -0.015, cut for the highest 2% near 0.3. Some of the results follow.
# Molecular target: T1, Abf1 (UniProt P14164)
# T1 sequence: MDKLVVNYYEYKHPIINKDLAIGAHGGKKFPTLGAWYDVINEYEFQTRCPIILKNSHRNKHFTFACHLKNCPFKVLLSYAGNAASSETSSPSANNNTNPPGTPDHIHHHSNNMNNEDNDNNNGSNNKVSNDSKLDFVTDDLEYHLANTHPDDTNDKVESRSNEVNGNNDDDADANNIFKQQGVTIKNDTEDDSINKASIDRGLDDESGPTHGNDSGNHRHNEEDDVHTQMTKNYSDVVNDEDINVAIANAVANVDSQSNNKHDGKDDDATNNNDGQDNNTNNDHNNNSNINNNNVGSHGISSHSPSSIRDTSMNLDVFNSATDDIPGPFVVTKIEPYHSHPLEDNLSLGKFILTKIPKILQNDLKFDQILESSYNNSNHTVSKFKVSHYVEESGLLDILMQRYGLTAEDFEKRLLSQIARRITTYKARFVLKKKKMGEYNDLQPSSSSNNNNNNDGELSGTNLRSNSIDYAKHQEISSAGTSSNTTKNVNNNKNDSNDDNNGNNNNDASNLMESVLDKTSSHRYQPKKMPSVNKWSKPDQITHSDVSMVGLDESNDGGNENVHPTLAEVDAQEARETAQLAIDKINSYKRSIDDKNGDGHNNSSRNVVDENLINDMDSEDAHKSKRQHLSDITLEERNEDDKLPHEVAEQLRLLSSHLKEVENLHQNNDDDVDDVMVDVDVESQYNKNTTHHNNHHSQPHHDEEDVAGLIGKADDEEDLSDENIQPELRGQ
# Assay: PBM E-score (8-mer binding enrichment) (E-score (-0.5 to 0.5)); higher = stronger / more preferred TF binding
# Details: protein concentration: 200 nM; construct: GST-full length
# How it was run: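 Yeast transcription factors carrying a GST tag, as full-length proteins or DNA-binding domains, were produced by PURExpress in vitro transcription/translation. About 100-200 nM protein was applied to universal all-10-mer Agilent arrays, double-stranded by primer extension on fresh or once-stripped slides. Bound protein was detected with fluorescent anti-GST, and scans were normalised with masliner. The Universal PBM Analysis Suite gave each ungapped eight-base word, pooled with its reverse complement, an E-score, a modified Wilcoxon-Mann-Whitney statistic.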
row,Sequence,PBM E-score
1,CATCTCAG,0.0453
2,ACGACACC,0.283
3,AAGGGCGG,-0.28
4,CGTACACG,0.245
5,AGCACTCA,-0.0802
6,CATCATCA,0.254
7,GACATTTA,0.0126
8,ACGCGGAA,-0.0474
9,AACCACCG,-0.0015
10,CTATCGAA,0.00268
11,GTACTTCA,0.158
12,ACCGTAGA,0.219
13,AACGCAGG,-0.179
14,CCGGTATC,0.00781
15,CGTTGGAC,0.0299
16,AAAGAAGA,-0.0112
17,ACGGTGGC,0.1
18,ACGATGAA,0.2
19,CAAATGGC,0.05
20,ACCCGGTG,-0.0413
21,GATAACCC,0.0444
22,ATTGTCCC,-0.0994
23,CGGTCTGC,-0.139
24,AATTCCAT,0.125
25,CGACGAAA,0.363

# Random excerpt: 3 records from the list
row,Sequence,PBM E-score
5,AGCACTCA,-0.0802
14,CCGGTATC,0.00781
4,CGTACACG,0.245

# The listing continues:

row,Sequence,PBM E-score
1,GACTTGGA,-0.165
2,GTGTAACA,0.197
3,TCGTAAGA,0.154
4,AAGAGAAT,-0.016
5,ATTGCTAC,0.106
6,GTAGTCAA,0.106
7,AAGTATGA,0.0982
8,AAGTGTTC,-0.0135
9,CGGGAACC,-0.245
10,CCGAACAC,-0.0335
11,ACAAGGTA,0.0562
12,GGATAGCC,-0.097
13,AGTTAAAA,0.0966
14,GCCCCTAC,-0.242
15,AATAGCGC,0.0396
16,CTCCAGCA,-0.166
17,ATGACCAA,0.239
18,AACACTCG,-0.00319
19,GGTCCACA,-0.141
20,CTACTGGC,-0.0885
21,CTGGCCCC,-0.152
22,CTCTGAGC,-0.165
23,AAAGGACC,-0.147
24,AGGCTACT,-0.1
25,GATTCACC,-0.071

row,Sequence,PBM E-score
1,GTCGACCA,0.0601
2,AGCGCACC,-0.151
3,ACGGTCGC,0.134
4,AGGGTGTA,-0.123
5,AAGATCGA,-0.00469
6,CTCGTCCA,0.147
7,AATGTGAT,0.19
8,GTCATGAA,0.124
9,ATGTCGAC,0.181
10,GCCTCGCC,-0.261
11,AAATGAGG,0.0174
12,ACCTTTAA,-0.0582
13,AAACTCCG,0.0887
14,GTATATAC,0.184
15,CTGTCATC,0.108
16,CATTAAGC,-0.0212
17,TCGACGCA,0.113
18,AAACCCCG,-0.0584
19,GATTACTA,-0.0127
20,CCGTACTA,0.338
21,ACGAGCAT,0.00886
22,GCGGGCTA,-0.115
23,CCAGGGTA,-0.108
24,CACTAGCG,0.051
25,ATTCTCGG,0.0995

# Given tab-delimited: part of the list above.
row	Sequence	PBM E-score
9	ATGTCGAC	0.181
11	AAATGAGG	0.0174
19	GATTACTA	-0.0127
22	GCGGGCTA	-0.115

# Next entries

row,Sequence,PBM E-score
1,CAAGCCTA,-0.0263
2,CTTTGGAC,-0.0654
3,GTCACCAC,0.278
4,ACCAACGA,0.065
5,AGCTTTCG,-0.0181
6,CAAGGTCC,-0.106
7,TCCCGAGA,0.11
8,GCACAAGA,0.00987
9,ACGACACG,0.223
10,GTAACCCA,0.0173
11,AGACTTAG,-0.158
12,TATCCCAA,0.0219
13,ACGTTACG,0.133
14,TATGAGGA,-0.0672
15,AGTTCGGC,-0.0604
16,TACATTGA,0.058
17,AGGAACAA,-0.0887
18,ACTAAGAA,-0.0373
19,ACGAGTCC,0.0176
20,GGCCATAC,-0.0756
21,GGACCAAA,0.0953
22,ACGCTTAC,-0.132
23,CATCGTAG,0.117
24,CCTAGTTA,0.0535
25,CCCACTCA,-0.0863

row,Sequence,PBM E-score
1,ATCTATCC,0.0607
2,AGGTATCA,0.145
3,CATATCAC,0.389
4,ATTGTAGC,-0.0285
5,ACAAAATA,0.0246
6,GATGAATC,0.2
7,ACTCTAAC,-0.148
8,CCGAACAG,-0.0735
9,CGTGTAGC,0.0125
10,CTCGCGGC,-0.0716
11,CTATACTC,-0.112
12,AGCCGCCC,-0.0951
13,CGATTCCC,-0.154
14,AGTGAGTG,0.0115
15,AGTCGCAC,-0.139
16,AATTCTTG,0.0803
17,CAACCCGC,-0.122
18,CGCCCAAA,0.0323
19,ACTCTCCA,0.0138
20,ATCCCTTC,-0.0393
21,AACGACGC,0.0599
22,CGCTGAAC,0.144
23,GCCAGTGA,0.115
24,CACTTACG,0.151
25,AACGCCTG,-0.0455

# Reprinted from above for reference:
row,Sequence,PBM E-score
3,CATATCAC,0.389
4,ATTGTAGC,-0.0285

# Next part.

row,Sequence,PBM E-score
1,ACATCACC,0.353
2,ACAATATG,0.105
3,CCATAAAA,0.0514
4,GACAGCCA,0.0192
5,TCACAGAA,0.0294
6,CTTGAACC,0.00344
7,AATATATT,0.159
8,ACCCGGCC,-0.131
9,AAAGAGTA,-0.0449
10,AGCTTTGA,-0.124
11,CGGAAGTC,0.0627
12,CTTTGTGA,0.0277
13,CCTTCTCA,-0.141
14,GATTGGTA,0.109
15,AGGCAACG,-0.135
16,CCTGAAAG,0.192
17,GACCACAC,0.0366
18,GACCCCTC,-0.387
19,GGCCCTAC,-0.184
20,GCGCGCGC,0.197
21,AACCCGAT,0.129
22,CAGGGTAC,-0.116
23,CAGCCGGC,-0.0851
24,CTAACCAA,0.0195
25,CCTGACCC,-0.263

row,Sequence,PBM E-score
1,CAGCGCTA,-0.0154
2,TACGGTAA,0.124
3,GGGAGTGA,0.152
4,AGAAGGCT,-0.206
5,AGGTTATA,-0.0486
6,ATAAAGTC,0.18
7,CCTCGAAG,0.092
8,GCTGAACA,-0.012
9,ATACTGAT,0.155
10,CCGTAGTA,0.119
11,GGCTTCAA,-0.133
12,ATTTCGCA,0.123
13,AAGGTCTG,-0.148
14,CCAATTCG,0.0107
15,AGTAAGCC,-0.154
16,CTCACATC,0.0864
17,CCCAAAGG,-0.158
18,AGATAAGC,-0.0966
19,CGTAAGTA,0.284
20,ACAAGTAG,-0.271
21,AACTCTAC,-0.203
22,CAACCAAA,0.0361
